# Reference: the supplement of paper PMC12067093, “Discovery and optimisation of a covalent ligand for TRIM25 and its application to targeted protein ubiquitination” (Chemical Science, 2025)
# The chains behind the UniProt entries cited, without tags or fusion partners. Where a name states a change or a piece, a line headed by the entry shows the natural chain unless it says otherwise.
# UniProt Q9H2Y7: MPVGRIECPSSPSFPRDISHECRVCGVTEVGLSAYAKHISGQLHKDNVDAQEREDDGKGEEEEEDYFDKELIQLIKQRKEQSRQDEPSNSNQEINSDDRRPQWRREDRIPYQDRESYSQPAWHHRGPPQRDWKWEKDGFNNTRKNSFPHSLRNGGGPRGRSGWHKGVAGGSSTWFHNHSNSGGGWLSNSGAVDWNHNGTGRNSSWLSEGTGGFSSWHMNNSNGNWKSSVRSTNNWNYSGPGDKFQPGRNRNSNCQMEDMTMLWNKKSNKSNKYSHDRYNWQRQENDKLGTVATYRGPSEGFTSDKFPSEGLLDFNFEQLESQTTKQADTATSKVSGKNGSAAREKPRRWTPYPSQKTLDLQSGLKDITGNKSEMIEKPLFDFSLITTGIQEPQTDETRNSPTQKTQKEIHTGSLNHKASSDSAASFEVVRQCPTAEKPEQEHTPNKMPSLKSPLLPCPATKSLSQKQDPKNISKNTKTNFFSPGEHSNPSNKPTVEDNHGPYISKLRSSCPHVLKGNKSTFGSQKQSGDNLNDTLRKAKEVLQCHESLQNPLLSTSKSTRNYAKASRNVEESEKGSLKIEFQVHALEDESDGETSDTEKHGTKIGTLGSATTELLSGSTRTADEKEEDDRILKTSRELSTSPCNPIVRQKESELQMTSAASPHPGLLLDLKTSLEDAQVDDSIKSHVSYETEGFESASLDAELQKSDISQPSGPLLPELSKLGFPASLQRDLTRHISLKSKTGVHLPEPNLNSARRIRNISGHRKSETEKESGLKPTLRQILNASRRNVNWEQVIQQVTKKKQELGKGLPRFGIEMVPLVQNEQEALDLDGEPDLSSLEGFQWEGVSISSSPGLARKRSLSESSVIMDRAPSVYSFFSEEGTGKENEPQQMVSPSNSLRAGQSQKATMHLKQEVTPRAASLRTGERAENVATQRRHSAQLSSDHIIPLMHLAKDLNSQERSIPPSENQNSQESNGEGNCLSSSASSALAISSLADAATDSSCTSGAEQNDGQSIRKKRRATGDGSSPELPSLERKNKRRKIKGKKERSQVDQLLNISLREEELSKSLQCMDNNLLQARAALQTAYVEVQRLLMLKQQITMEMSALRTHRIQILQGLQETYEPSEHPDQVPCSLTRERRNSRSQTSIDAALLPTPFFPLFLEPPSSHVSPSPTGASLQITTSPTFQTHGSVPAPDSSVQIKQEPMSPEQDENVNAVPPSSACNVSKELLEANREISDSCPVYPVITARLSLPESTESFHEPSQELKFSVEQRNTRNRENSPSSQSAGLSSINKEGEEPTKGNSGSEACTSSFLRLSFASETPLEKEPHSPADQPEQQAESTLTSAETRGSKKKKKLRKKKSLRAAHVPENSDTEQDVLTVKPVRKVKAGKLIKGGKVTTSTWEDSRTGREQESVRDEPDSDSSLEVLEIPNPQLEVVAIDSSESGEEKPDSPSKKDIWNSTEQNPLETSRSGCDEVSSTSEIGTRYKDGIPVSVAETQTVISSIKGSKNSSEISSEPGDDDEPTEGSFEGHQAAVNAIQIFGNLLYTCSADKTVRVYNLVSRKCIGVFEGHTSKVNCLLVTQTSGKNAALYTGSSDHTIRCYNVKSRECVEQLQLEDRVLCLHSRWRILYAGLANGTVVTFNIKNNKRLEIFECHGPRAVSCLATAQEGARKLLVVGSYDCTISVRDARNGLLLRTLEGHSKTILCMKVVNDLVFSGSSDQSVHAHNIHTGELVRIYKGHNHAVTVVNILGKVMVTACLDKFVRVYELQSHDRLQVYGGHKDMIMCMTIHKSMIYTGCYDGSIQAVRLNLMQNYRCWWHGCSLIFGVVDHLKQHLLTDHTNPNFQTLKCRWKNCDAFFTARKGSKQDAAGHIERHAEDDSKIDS
# Some of the results follow.
# Target: ZNF106_Q9H2Y7-2_7_CILCHIVYSSK (UniProt Q9H2Y7)
# Assay: probe-labelled cysteine peptide fold change vs DMSO (competition) (log2 fold change); higher = less target engagement (more negative = stronger competition)
# Details: THP-1, incubation time: 4 h
# 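Note: competitive profiling in live THP-1 cells: cysteine peptides tagged with an iodoacetamide desthiobiotin (IA-DTB) probe, intensity after compound treatment relative to DMSO-treated cells.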
compound,measurement,setting,value
Cc1cc(C(=O)N2CCCN(C(=O)CCl)CC2)ccc1-c1ccccc1 [compound 10],probe-labelled cysteine peptide fold change,10 µM,0.024
same,probe-labelled cysteine peptide fold change,50 µM,-0.0149
